Our source for the binding values is PMC9234224.

Amino acid sequences for entries named in this document (tags omitted).
UniProt Q86WV6: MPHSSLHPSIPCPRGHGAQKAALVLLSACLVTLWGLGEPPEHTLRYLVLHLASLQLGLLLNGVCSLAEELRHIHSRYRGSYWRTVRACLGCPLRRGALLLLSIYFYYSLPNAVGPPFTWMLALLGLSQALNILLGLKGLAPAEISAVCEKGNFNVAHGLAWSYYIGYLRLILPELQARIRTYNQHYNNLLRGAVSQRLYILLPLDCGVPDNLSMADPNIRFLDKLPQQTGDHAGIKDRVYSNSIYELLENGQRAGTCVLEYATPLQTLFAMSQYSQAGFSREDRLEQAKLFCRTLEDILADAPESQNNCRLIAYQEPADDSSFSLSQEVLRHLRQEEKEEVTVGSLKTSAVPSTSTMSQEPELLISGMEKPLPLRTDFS
UniProt Q99836: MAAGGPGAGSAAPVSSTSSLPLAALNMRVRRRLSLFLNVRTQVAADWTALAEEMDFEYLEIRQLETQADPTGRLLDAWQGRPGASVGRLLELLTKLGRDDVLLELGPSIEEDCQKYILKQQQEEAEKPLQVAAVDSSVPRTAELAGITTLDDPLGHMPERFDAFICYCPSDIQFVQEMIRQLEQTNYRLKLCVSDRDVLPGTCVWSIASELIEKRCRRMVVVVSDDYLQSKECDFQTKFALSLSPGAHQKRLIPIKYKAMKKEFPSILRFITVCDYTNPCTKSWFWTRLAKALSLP
UniProt P05412: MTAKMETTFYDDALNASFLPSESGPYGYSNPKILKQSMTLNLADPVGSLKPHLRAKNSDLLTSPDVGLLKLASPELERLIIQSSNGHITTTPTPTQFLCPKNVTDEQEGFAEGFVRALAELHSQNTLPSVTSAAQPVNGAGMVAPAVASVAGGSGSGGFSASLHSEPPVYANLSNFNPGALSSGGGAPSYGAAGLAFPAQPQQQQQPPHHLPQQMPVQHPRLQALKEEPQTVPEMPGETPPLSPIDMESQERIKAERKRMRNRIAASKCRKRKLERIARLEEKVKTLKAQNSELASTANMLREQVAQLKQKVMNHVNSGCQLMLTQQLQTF

These are yes or no findings as the source states them, for the method shown. Binding seen in cells or lysates may run through a third protein. Some binding calls cover weakened binding; strength is not graded here.

For assay [1], the target named is Stimulator of interferon response CGAMP interactor 1 (STING1) (human (endogenous in THP1)) (UniProt Q86WV6). Nature of the assay: co-IP; endogenous proteins from THP1 cells, untreated or treated with LPS (500 ng/mL) and 3'3'-cGAMP (10 ug/mL) for 6 h; lysed in RIPA buffer at 4°C, specific antibodies (3-5 ug/mL) with protein A agarose beads, 2 h or overnight at 4°C, washed with PBS; blot.

For assay [2], the target named is T1, interferon regulatory factor 3 (IRF3) (human (endogenous in THP1)) (UniProt Q14653).
T1 sequence: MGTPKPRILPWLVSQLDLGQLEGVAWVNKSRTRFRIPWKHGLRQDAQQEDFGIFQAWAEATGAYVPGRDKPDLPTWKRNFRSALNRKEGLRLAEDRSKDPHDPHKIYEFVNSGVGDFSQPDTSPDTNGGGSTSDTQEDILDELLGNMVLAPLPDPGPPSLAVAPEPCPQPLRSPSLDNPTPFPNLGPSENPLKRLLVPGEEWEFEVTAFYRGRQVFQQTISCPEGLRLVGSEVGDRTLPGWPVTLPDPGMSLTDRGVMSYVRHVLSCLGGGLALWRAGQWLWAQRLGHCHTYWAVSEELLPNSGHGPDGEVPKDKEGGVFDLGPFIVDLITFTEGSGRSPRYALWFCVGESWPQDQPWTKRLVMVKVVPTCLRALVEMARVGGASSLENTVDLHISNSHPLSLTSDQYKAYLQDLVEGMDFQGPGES
Described as above.

For “myeloid differentiation marker 88 (MYD88) (from UniProt Q99836 1-296)”, the binding entry in assay [1] is given as “binds”. Consider “transcription factor JUN (from UniProt P05412 1-331)”, for which the binding result in assay [2] is reported as “binds”.
